According to paper PMC8883701:
Substitutions are numbered along the chain they refer to. Construct, isoform or probe ends are uncertain for at least one entry. Where cells or extracts were used, other partners may take part. For part of these data: A weaker result is weaker than the reference pair of the same experiment. For part of these data: At least one verdict was read from the data and is not stated in words by the source. For part of these data: Where a protein sequence is shown, tags need not be part of it.

Chains of the proteins cited; added tags and fusions are not shown. Chains listed by the source or under a name are the forms on record and can include a tag or linker.
UniProt P09874, whole entry: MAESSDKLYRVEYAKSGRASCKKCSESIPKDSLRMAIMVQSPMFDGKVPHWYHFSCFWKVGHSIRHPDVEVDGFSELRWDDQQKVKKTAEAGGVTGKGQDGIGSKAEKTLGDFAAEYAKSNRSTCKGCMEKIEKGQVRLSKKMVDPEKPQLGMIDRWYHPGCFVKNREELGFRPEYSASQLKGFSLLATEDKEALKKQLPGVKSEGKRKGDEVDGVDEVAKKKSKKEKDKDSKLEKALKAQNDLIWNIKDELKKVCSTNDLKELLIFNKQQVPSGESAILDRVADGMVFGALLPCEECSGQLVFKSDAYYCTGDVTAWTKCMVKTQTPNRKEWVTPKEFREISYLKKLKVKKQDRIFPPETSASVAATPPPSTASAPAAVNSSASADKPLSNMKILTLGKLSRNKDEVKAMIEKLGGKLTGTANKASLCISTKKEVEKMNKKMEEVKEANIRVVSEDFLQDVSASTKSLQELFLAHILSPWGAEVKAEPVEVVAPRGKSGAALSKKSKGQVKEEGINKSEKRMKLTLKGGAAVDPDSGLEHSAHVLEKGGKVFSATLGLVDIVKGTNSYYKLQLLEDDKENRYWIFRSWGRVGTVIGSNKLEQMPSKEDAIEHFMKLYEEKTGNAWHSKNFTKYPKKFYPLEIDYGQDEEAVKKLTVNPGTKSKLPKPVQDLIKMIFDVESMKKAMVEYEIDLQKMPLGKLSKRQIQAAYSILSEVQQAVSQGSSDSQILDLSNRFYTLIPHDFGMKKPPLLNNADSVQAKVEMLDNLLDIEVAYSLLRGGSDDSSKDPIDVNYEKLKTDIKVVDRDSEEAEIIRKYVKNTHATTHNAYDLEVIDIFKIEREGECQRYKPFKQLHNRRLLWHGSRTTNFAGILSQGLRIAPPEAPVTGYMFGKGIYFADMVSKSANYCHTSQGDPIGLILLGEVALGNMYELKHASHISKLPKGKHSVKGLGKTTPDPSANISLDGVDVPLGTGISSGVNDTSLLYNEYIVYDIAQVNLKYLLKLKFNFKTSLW
Rpa endogenous, mouse (mouse (MEF nuclear extract)), one chain, as listed by the source, chain 1 of 3: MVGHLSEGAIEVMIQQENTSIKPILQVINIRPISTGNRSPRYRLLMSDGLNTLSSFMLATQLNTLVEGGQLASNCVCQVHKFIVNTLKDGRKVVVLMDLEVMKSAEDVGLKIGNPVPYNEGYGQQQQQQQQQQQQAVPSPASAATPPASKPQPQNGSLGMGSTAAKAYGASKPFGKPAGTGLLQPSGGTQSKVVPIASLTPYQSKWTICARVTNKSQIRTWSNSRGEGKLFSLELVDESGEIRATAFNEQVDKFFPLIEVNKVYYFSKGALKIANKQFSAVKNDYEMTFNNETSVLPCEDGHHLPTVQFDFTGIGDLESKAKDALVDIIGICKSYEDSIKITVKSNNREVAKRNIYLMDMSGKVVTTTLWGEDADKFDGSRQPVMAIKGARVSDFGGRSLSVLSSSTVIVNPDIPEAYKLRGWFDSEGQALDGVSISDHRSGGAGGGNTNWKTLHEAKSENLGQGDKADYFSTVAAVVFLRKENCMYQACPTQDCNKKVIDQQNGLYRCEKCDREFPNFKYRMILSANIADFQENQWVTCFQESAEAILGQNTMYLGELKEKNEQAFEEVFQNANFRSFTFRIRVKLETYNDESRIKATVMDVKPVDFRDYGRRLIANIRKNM
RPA (RPA1/RPA2/RPA3) endogenous, human, one chain, as listed by the source, chain 1 of 3: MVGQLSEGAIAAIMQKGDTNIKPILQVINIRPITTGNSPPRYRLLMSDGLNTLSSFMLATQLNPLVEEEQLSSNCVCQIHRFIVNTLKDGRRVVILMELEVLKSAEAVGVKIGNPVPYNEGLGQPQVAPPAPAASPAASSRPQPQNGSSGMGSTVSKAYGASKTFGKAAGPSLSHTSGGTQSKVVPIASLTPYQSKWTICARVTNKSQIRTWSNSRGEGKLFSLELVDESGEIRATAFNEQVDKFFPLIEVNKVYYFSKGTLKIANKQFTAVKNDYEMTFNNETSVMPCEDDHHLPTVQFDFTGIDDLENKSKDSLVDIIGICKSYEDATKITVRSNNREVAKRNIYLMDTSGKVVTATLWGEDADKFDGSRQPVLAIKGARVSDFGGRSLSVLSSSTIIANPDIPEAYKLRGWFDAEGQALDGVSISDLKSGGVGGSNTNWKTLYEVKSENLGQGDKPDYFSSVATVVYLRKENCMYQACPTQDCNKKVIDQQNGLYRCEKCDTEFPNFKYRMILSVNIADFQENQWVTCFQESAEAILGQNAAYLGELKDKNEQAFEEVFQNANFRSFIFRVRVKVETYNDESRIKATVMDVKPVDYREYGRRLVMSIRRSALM
RPA (RPA1/RPA2/RPA3) endogenous, human, one chain, as listed by the source, chain 3 of 3: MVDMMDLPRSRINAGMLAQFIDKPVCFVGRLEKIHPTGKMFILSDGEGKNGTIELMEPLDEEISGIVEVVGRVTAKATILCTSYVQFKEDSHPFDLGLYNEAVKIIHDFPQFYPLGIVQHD
Rpa endogenous, mouse (mouse (MEF nuclear extract)), one chain, as listed by the source, chain 2 of 3: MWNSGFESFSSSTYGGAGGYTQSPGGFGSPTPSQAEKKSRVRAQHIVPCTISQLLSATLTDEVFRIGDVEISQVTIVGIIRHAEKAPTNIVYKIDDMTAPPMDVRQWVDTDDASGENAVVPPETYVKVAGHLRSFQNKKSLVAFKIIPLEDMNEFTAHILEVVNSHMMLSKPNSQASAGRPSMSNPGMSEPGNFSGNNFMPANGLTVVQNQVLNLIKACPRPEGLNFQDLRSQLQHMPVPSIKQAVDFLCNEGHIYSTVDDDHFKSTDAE
RPA (RPA1/RPA2/RPA3) endogenous, human, one chain, as listed by the source, chain 2 of 3: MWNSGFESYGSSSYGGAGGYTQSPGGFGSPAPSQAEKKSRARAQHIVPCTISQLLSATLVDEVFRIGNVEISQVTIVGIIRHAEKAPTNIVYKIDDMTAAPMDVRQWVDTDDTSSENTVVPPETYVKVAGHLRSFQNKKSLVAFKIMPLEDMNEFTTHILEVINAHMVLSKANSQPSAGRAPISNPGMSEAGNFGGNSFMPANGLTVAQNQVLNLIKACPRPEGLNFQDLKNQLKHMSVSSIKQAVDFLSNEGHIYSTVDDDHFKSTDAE
Rpa endogenous, mouse (mouse (MEF nuclear extract)), one chain, as listed by the source, chain 3 of 3: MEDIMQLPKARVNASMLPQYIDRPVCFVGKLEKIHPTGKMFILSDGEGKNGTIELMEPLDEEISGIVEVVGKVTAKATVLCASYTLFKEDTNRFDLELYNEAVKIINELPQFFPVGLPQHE

Tests used:
Assay in all cases: pull-down
LAP2α endogenous = target: T1, LAP2α endogenous (UniProt P42166); conditions: nuclear extract, rucaparib enhances; biotin-ssDNA (one third of 30 pmol) on streptavidin Sepharose, nuclear extract in NETN buffer, 4 °C 8 h or room temperature 1 h; composition not given; protein in an extract; label: 5' biotin; single-stranded DNA
T1 sequence (looked up, limits assumed): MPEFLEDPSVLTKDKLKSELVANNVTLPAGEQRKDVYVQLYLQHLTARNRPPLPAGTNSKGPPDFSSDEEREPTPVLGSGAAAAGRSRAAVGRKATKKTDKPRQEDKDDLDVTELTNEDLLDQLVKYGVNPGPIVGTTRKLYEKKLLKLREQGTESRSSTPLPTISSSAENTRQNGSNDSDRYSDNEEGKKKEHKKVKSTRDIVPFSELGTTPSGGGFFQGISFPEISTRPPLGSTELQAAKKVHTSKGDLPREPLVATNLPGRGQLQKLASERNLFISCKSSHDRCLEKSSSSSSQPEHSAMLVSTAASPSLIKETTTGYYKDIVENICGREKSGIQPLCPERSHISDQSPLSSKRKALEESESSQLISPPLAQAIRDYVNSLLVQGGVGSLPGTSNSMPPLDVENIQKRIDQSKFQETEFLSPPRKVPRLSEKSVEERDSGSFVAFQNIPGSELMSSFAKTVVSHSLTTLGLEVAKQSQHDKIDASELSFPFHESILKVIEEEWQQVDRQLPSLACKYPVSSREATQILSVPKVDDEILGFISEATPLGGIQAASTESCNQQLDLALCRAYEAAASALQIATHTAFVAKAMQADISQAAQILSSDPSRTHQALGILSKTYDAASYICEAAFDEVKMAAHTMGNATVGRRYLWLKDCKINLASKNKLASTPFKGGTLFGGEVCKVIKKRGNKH

LAP2α/2RE R86E,R88E = target: T2, LAP2α/2RE R86E,R88E (UniProt P42166); conditions: with RPA in nuclear extract; biotin-ssDNA (one third of 30 pmol) on streptavidin Sepharose, nuclear extract in NETN buffer, 4 °C 8 h or room temperature 1 h; composition not given; protein in an extract; label: 5' biotin; single-stranded DNA
T2 sequence (looked up, limits assumed): T1 sequence (looked up, limits assumed) with R86E, R88E

[1] = system: Rpa endogenous, mouse (mouse (MEF nuclear extract)); conditions: biotin-ssDNA (one third of 30 pmol) on streptavidin Sepharose, nuclear extract in NETN buffer, 4 °C 8 h or room temperature 1 h, composition not given, protein in an extract, label: 5' biotin, single-stranded DNA
PARP1 = PARP1 (UniProt P09874); conditions: nuclear extract, rucaparib 10 uM enhances; biotin-ssDNA (one third of 30 pmol) on streptavidin Sepharose, nuclear extract in NETN buffer, 4 °C 8 h or room temperature 1 h; composition not given; protein in an extract; label: 5' biotin; single-stranded DNA
[2] = system: RPA (RPA1/RPA2/RPA3) endogenous, human; conditions: biotin-ssDNA (one third of 30 pmol) on streptavidin Sepharose, nuclear extract in NETN buffer, 4 °C 8 h or room temperature 1 h, composition not given, protein in an extract, label: 5' biotin, single-stranded DNA
LAP2α/wt re-expressed = target: T3, LAP2α/wt re-expressed (UniProt P42166); conditions: with RPA in nuclear extract; biotin-ssDNA (one third of 30 pmol) on streptavidin Sepharose, nuclear extract in NETN buffer, 4 °C 8 h or room temperature 1 h; composition not given; protein in an extract; label: 5' biotin; single-stranded DNA
T3 sequence (looked up, limits assumed): T1 sequence (looked up, limits assumed)

Sequence: TGCAGCTGGCACGACAGGTTTTAATGAATCGGCCAACGCGCGGGGAGAGGCGGTTTGCGTATTGGGCGCT [70-nt ssDNA]
- binding result (LAP2α endogenous): binds
- binding result (LAP2α/2RE R86E,R88E): binds
- binding result ([1]; Lap2α+/+ MEF extract): binds
- binding result ([1]; Lap2α-/- MEF extract): binds more weakly
- binding result (PARP1): binds
- binding result ([2]; LAP2α knockdown + rucaparib): binds more weakly
- binding result ([2]; LAP2α knockdown): binds more weakly
- binding result ([2]; LAP2α present, nuclear extract): binds
- binding result ([2]; LAP2α-depleted + LAP2α/2RE, not restored): binds more weakly
- binding result ([2]; LAP2α-depleted + LAP2α/wt, binding restored): binds
- binding result ([2]; rucaparib 10 uM 4 h, enhanced loading): binds
- binding result (LAP2α/wt re-expressed): binds
